# According to the supplement of paper PMC10849652:
# Protein sequences, listed by entry. Tags and fused reporters are not part of them. Lines headed by an entry give the natural chain unless they say otherwise; changes in a name come on top.
# UniProt Q14807: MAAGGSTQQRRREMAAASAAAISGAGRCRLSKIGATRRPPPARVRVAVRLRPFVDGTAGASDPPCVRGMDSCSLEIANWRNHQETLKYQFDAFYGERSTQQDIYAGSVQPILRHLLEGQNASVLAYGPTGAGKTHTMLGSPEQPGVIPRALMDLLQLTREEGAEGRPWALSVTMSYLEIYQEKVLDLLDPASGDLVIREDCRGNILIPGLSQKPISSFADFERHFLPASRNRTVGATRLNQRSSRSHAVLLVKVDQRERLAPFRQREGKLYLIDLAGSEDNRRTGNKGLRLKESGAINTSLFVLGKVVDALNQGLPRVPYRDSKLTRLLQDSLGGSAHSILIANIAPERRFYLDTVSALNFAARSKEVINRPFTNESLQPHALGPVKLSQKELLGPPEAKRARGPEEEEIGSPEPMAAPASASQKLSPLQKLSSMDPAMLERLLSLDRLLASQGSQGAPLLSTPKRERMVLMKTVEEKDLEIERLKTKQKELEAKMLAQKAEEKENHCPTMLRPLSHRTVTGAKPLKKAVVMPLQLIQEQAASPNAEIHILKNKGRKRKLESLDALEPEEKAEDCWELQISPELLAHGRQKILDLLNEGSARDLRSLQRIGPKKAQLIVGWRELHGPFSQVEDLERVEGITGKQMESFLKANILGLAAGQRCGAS
# UniProt Q07666, whole entry, looked up: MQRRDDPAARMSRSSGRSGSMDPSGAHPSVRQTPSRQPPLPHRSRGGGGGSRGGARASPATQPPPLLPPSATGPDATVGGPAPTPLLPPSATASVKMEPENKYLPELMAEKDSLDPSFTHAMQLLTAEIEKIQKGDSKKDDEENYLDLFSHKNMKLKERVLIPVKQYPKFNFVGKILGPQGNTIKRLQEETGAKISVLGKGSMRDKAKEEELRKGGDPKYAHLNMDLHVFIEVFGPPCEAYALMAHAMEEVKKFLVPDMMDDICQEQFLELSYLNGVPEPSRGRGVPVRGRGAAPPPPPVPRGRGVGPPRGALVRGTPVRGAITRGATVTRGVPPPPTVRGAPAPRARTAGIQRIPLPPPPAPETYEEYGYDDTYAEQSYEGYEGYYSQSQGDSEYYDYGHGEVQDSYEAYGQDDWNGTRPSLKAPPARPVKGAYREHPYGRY
# UniProt Q14657: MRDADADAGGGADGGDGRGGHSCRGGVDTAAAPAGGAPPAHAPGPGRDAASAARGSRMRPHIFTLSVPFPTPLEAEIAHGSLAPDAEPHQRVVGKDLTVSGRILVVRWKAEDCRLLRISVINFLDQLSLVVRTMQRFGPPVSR
# UniProt Q8N371: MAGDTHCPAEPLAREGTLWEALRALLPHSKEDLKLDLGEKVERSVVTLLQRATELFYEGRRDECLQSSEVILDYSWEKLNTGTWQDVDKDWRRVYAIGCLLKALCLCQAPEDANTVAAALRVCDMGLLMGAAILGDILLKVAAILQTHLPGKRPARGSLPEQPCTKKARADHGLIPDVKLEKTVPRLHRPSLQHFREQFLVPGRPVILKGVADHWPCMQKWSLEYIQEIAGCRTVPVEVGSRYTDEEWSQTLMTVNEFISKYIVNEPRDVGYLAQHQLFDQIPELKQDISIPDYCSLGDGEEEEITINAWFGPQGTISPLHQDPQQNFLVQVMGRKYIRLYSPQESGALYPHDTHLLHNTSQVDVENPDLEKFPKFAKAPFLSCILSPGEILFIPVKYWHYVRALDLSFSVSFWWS
# UniProt Q1ED39: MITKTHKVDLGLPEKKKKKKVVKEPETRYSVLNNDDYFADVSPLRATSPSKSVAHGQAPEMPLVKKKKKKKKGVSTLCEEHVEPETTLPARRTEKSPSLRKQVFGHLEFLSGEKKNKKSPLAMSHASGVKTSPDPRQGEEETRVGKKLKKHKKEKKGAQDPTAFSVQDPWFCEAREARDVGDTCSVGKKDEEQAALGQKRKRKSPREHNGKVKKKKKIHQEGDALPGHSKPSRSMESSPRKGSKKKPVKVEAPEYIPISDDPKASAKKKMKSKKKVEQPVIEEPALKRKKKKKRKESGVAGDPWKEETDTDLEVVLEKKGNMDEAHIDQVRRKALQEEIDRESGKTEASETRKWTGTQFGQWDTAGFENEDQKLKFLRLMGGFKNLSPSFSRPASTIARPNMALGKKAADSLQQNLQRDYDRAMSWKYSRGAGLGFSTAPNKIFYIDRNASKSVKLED
# UniProt Q6IAA8, whole entry, looked up: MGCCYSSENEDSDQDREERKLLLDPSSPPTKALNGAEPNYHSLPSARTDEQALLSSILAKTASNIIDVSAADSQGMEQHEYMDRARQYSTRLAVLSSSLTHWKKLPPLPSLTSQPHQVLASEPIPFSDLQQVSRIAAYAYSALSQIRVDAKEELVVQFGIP
# UniProt Q9UHA4, whole entry, looked up: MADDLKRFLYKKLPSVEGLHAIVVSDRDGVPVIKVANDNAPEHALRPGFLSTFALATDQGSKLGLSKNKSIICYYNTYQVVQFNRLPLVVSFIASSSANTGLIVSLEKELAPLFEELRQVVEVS
# UniProt Q9NQT8: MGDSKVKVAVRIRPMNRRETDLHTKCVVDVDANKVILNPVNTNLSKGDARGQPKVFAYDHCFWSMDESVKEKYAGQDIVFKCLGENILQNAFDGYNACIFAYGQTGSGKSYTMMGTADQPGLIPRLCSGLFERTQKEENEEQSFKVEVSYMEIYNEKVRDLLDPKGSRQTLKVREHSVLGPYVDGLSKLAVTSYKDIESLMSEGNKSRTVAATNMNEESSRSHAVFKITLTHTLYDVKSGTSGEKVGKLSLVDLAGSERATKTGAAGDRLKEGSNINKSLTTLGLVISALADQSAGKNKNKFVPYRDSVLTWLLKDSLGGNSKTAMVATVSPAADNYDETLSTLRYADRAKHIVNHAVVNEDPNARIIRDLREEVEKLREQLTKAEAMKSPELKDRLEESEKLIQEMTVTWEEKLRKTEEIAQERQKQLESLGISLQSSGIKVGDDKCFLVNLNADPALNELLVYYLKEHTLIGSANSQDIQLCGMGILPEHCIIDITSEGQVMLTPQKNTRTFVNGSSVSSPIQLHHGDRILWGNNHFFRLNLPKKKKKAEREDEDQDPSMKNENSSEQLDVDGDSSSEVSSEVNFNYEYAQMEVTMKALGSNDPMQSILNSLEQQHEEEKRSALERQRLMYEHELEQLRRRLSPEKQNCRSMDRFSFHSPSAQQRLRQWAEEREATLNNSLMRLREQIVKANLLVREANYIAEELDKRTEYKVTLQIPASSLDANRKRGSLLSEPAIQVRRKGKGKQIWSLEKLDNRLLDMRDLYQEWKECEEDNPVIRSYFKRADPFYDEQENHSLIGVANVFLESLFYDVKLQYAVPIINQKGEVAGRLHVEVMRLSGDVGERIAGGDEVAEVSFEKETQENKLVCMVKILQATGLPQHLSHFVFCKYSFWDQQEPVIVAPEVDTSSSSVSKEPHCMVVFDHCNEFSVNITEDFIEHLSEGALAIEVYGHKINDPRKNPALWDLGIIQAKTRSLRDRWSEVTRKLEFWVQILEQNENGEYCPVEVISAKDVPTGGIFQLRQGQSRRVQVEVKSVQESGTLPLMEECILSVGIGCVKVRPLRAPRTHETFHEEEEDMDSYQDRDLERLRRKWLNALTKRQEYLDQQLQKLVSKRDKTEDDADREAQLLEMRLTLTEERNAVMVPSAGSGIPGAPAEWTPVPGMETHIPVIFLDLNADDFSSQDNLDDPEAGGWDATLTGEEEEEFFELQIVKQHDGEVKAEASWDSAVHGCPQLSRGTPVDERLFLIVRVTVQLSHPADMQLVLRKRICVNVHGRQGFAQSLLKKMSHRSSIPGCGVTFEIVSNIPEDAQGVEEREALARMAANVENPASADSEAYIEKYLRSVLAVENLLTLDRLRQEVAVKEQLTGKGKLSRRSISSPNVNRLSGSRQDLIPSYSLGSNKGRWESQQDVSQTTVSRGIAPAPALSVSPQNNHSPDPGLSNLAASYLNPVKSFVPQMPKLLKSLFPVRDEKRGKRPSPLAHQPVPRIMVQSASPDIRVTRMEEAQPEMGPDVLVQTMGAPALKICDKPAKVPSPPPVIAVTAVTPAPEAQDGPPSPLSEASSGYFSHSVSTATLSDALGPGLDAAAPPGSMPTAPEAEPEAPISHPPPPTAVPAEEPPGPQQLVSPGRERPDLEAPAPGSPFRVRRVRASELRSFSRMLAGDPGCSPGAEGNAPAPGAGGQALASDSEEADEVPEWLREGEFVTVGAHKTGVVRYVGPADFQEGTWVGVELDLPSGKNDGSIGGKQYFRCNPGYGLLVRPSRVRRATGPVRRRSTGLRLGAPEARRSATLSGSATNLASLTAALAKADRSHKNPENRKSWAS
# UniProt Q06136: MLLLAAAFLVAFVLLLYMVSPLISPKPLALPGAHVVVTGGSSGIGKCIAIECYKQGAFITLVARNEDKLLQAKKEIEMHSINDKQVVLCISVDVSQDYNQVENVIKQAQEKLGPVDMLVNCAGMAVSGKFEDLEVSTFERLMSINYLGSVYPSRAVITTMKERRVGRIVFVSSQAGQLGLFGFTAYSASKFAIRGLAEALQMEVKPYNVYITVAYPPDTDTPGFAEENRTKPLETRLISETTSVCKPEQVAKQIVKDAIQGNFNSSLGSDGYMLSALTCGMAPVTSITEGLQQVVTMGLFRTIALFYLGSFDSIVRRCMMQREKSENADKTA
# UniProt Q71RC2, whole entry, looked up: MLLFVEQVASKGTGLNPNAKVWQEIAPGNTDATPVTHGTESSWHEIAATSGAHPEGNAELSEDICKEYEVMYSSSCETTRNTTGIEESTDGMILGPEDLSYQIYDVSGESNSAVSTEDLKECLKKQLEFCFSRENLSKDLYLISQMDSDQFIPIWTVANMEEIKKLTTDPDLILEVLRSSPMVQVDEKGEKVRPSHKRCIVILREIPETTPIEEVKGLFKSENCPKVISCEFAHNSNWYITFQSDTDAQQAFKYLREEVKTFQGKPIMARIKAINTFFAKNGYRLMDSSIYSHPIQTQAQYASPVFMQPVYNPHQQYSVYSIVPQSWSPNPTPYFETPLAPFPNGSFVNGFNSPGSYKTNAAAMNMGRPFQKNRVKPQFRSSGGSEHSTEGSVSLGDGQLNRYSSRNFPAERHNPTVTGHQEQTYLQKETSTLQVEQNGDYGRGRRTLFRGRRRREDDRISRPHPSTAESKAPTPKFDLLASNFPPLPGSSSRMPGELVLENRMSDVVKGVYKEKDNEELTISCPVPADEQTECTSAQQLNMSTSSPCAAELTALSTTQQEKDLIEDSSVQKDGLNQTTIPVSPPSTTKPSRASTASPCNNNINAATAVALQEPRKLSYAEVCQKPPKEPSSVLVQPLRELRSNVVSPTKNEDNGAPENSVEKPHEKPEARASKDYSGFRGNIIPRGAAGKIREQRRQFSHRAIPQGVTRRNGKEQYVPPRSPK
# UniProt O60662: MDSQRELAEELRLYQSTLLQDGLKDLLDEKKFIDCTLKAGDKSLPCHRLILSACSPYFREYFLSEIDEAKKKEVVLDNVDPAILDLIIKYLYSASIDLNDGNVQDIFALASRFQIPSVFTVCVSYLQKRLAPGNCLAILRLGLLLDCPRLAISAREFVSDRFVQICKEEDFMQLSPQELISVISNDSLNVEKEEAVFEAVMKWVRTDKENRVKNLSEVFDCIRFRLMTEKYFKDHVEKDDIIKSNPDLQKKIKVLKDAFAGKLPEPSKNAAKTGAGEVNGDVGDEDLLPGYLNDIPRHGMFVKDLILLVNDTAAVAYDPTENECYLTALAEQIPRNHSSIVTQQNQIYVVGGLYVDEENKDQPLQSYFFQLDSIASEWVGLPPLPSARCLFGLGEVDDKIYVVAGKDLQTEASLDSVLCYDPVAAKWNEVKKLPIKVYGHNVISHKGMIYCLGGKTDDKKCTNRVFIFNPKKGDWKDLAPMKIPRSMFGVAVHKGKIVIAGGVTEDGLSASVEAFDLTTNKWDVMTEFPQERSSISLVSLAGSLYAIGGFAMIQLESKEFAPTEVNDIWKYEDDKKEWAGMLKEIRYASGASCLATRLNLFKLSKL
# UniProt Q14145, whole entry, looked up: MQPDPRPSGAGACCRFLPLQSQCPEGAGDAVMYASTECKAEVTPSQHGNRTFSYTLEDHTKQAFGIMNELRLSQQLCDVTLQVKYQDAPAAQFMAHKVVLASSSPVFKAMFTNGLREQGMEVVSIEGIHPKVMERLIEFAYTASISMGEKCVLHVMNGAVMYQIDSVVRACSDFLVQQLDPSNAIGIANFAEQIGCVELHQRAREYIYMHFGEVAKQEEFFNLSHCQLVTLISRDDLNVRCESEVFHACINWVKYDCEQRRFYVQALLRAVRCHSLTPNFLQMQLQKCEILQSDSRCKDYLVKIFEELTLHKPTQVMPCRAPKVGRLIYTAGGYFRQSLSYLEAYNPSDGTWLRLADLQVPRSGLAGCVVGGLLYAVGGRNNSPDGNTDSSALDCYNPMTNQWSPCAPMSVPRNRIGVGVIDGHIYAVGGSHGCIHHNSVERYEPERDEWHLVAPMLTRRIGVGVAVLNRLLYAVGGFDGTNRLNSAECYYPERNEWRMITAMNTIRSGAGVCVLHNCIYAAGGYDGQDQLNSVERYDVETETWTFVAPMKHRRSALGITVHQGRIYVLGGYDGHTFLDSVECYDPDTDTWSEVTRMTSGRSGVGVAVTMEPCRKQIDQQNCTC
# The other results are listed elsewhere or left out.
# Columns and labels:
# Assay in all cases: log2 fold change, soluble protein after heating vs DMSO (PISA); higher = thermal stabilisation; K562 lysate, 10 uM; active = over 0.2 and 3.5 SD of the protein, either way, in both replicates (recomputed)
# erlotinib = compound: C#Cc1cccc(Nc2ncnc3cc(OCCOC)c(OCCOC)cc23)c1 [erlotinib]
# Summary of the method: (§1)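 The values are log-two fold changes in thermal stability compared with solvent controls and come from duplicates. They were obtained by TMTpro 16plex LC-MS/MS, with channel sums equalised, on the supernatant after 21,000xg for 90 min. That supernatant came from crude K562 extract at 1 mg/mL protein treated with 10 μM compound for 30 min, heated for 3 min across 48°C-58°C, pooled and brought to 0.5% NP-40 at 4°C.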
# [1] = compound: C/C(=N\NC(=O)C1=CC(=CC=C1)S(=O)(=O)N2CCOCC2)/C3=C(C=CC(=C3)Cl)O
# Summary of the method: as §1
# [2] = compound: C1=CC(=CC=C1C2=NC3=C(N2)C=C(C=C3)C(=O)N)OC4=CC=C(C=C4)Cl
# Summary of the method: as §1
# [3] = compound: C1=CC2=C(C=CC(=C2)/C=C\3/C(=O)NC(=NCC4=CC=CS4)S3)N=C1
# Summary of the method: as §1
# [4] = compound: C1=CC2=NC=CN=C2C=C1/C=C/3\C(=O)NC(=O)S3
# Summary of the method: as §1
# [5] = compound: C1=CC=C(C=C1)C2=NC(=C(N2)C3=CC=NC=C3)C4=CC(=C(C=C4)Cl)O
# Summary of the method: as §1
# [6] = compound: C1=CC=C2C(=C1)C3=NNC4=CC=CC(=C43)C2=O
# Summary of the method: as §1
# [7] = compound: C1CCN(C1)C(=O)NC2=CC=CC(=C2)NC3=NC=C(C(=N3)NCCC4=CN=CN4)Br
# Summary of the method: as §1
# [8] = compound: C1CN(CCC1(CC2=CC=C(C=C2)Cl)N)C3=NC=NC4=C3C=CN4
# Summary of the method: as §1
# IRAK-1-4 Inhibitor I = compound: C1COCCN1CCN2C3=CC=CC=C3N=C2NC(=O)C4=CC(=CC=C4)[N+](=O)[O-] [IRAK-1-4 Inhibitor I]
# Summary of the method: as §1
Target,log2 fold change (erlotinib),log2 fold change [1],log2 fold change [2],log2 fold change [3],log2 fold change [4],log2 fold change [5],log2 fold change [6],log2 fold change [7],log2 fold change [8],log2 fold change (IRAK-1-4 Inhibitor I)
KRIT1 (UniProt O00522),inactive: 0.071,inactive: 0.061,inactive: 0.043,inactive: -0.074,inactive: 0.177,inactive: 0.038,inactive: -0.034,inactive: -0.042,inactive: 0.043,inactive: -0.073
KDM6A (UniProt O15550),inactive: -0.022,inactive: -0.039,inactive: 0.061,inactive: 0,inactive: 0.006,inactive: 0.023,inactive: -0.064,inactive: 0.004,inactive: 0.045,inactive: 0.017
L2HGDH (UniProt Q9H9P8),inactive: -0.022,inactive: 0.02,inactive: -0.01,inactive: -0.032,inactive: 0.027,inactive: -0.037,inactive: 0.076,inactive: -0.02,inactive: -0.03,inactive: 0.018
KIAA1522 isoform 2 (UniProt Q9P206),inactive: 0.037,inactive: -0.173,inactive: 0.057,inactive: -0.071,inactive: -0.015,inactive: 0.017,inactive: 0.033,inactive: -0.007,inactive: -0.014,inactive: -0.056
KPNA3 (UniProt O00505),inactive: 0,inactive: -0.011,inactive: 0.019,inactive: -0.08,inactive: -0.049,inactive: 0.043,inactive: 0.007,inactive: -0.015,inactive: 0.083,inactive: -0.004
LAMA2 (UniProt P24043),inactive: 0.073,inactive: 0.054,inactive: 0.073,inactive: -0.001,inactive: -0.008,inactive: -0.027,inactive: 0.006,inactive: -0.13,inactive: 0.138,inactive: 0.032
KIF22 (UniProt Q14807),inactive: 0.012,inactive: -0.074,inactive: 0.076,inactive: -0.147,inactive: -0.007,inactive: -0.063,inactive: -0.123,inactive: 0.026,inactive: 0.05,inactive: 0.06
KIF4B (UniProt Q2VIQ3),inactive: -0.018,inactive: -0.035,inactive: -0.017,inactive: 0.032,inactive: -0.005,inactive: 0.034,inactive: 0.004,inactive: -0.003,inactive: -0.027,inactive: -0.061
KHDRBS1 (UniProt Q07666),inactive: -0.013,inactive: 0.001,inactive: -0.035,inactive: 0.009,inactive: -0.038,inactive: 0.006,inactive: -0.016,inactive: 0.026,inactive: 0.037,inactive: -0.013
LAGE3 (UniProt Q14657),inactive: 0.028,active: 0.342,inactive: 0.074,inactive: -0.008,inactive: -0.092,inactive: -0.018,inactive: 0.091,inactive: 0,inactive: 0.022,inactive: 0.06
KLC1 isoform 6 (UniProt Q07866),inactive: -0.02,inactive: -0.023,inactive: 0.002,inactive: 0,inactive: -0.033,inactive: 0.002,inactive: -0.007,inactive: -0.027,inactive: -0.01,inactive: 0.011
KYAT3 (UniProt Q6YP21),inactive: -0.009,inactive: -0.088,inactive: -0.004,inactive: 0.002,inactive: 0.016,inactive: -0.009,inactive: -0.004,inactive: -0.013,inactive: -0.01,inactive: -0.014
KDM8 isoform 3 (UniProt Q8N371),inactive: 0.09,inactive: -0.383,inactive: -0.039,inactive: 0.027,inactive: -0.014,inactive: -0.042,inactive: 0.033,inactive: 0.021,inactive: 0.035,inactive: 0.037
KIFBP (UniProt Q96EK5),inactive: -0.006,inactive: -0.021,inactive: -0.052,inactive: 0.042,inactive: 0.02,inactive: -0.018,inactive: -0.01,inactive: -0.003,inactive: -0.038,inactive: -0.028
KNOP1 (UniProt Q1ED39),inactive: -0.018,inactive: -0.011,inactive: -0.006,inactive: -0.176,inactive: 0.019,inactive: 0.008,inactive: 0.109,inactive: -0.128,inactive: 0.118,inactive: 0.123
"LARP1B, A0A3B3ISF0",inactive: -0.089,inactive: -0.09,inactive: 0.051,inactive: 0.054,inactive: -0.026,inactive: -0.054,inactive: 0.013,inactive: -0.02,inactive: 0.012,inactive: -0.006
KLHL11 (UniProt Q9NVR0),inactive: -0.042,inactive: 0.017,inactive: 0.115,inactive: 0.035,inactive: 0.021,inactive: -0.023,inactive: -0.035,inactive: -0.195,inactive: 0.142,inactive: 0.033
LAMTOR1 (UniProt Q6IAA8),inactive: 0.025,inactive: -0.018,inactive: -0.055,inactive: -0.012,inactive: -0.078,inactive: -0.023,inactive: 0.013,inactive: 0.014,inactive: 0.049,inactive: 0.035
KLHDC3 (UniProt Q9BQ90),inactive: -0.026,inactive: -0.124,inactive: -0.021,inactive: 0.014,inactive: -0.021,inactive: -0.034,inactive: 0.176,inactive: -0.085,inactive: -0.046,inactive: 0.019
LAMTOR3 (UniProt Q9UHA4),inactive: -0.006,inactive: -0.037,inactive: 0.003,inactive: -0.053,inactive: -0.005,inactive: -0.019,inactive: 0.027,inactive: -0.017,inactive: 0.012,inactive: 0.063
KIF13B (UniProt Q9NQT8),inactive: 0.025,inactive: 0.042,inactive: 0.001,inactive: -0.038,inactive: -0.026,inactive: -0.034,inactive: -0.064,inactive: -0.011,inactive: -0.005,inactive: 0.031
KIF1B isoform 2 (UniProt O60333),inactive: -0.002,inactive: 0.017,inactive: 0.028,inactive: -0.058,inactive: -0.001,inactive: -0.012,inactive: -0.033,inactive: 0,inactive: 0.023,inactive: -0.01
KDSR (UniProt Q06136),inactive: 0.023,inactive: 0.062,inactive: 0.025,inactive: -0.013,inactive: -0.018,inactive: -0.022,inactive: -0.041,inactive: 0.016,inactive: -0.006,inactive: 0.05
LARP4 isoform 4 (UniProt Q71RC2),inactive: 0.014,inactive: 0.028,inactive: 0.003,inactive: 0.009,inactive: -0.005,inactive: 0.025,inactive: 0.012,inactive: 0.061,inactive: -0.032,inactive: -0.024
KLHL41 (UniProt O60662),inactive: 0.086,inactive: 0.096,inactive: 0.055,inactive: -0.022,inactive: -0.097,inactive: -0.045,inactive: -0.17,inactive: 0.058,inactive: 0.112,inactive: 0.079
KEAP1 (UniProt Q14145),inactive: 0.048,inactive: 0.006,inactive: 0.018,inactive: -0.005,inactive: 0.014,inactive: 0.015,inactive: -0.006,inactive: 0.038,inactive: 0.018,inactive: -0.006
KIFC3 isoform 6 (UniProt Q9BVG8),inactive: 0.091,inactive: 0.069,inactive: 0.14,inactive: 0.004,inactive: 0.076,,inactive: -0.077,inactive: -0.103,inactive: 0.158,
KNL1 (UniProt Q8NG31),inactive: -0.005,inactive: -0.015,inactive: 0.002,inactive: 0,inactive: -0.017,inactive: 0.019,inactive: -0.015,inactive: 0.006,inactive: -0.007,inactive: 0.002
KIFC1 (UniProt Q9BW19),inactive: 0.003,inactive: 0.061,inactive: 0.011,inactive: -0.002,inactive: -0.048,inactive: 0.011,inactive: -0.012,inactive: -0.009,inactive: 0.025,inactive: -0.023

# Full records, quoted from the list. Values in the order: log2 fold change (erlotinib)	log2 fold change [1]	log2 fold change [2]	log2 fold change [3]	log2 fold change [4]	log2 fold change [5]	log2 fold change [6]	log2 fold change [7]	log2 fold change [8]	log2 fold change (IRAK-1-4 Inhibitor I)
# KLC1 isoform 6 (UniProt Q07866) is entered as inactive: -0.02	inactive: -0.023	inactive: 0.002	inactive: 0	inactive: -0.033	inactive: 0.002	inactive: -0.007	inactive: -0.027	inactive: -0.01	inactive: 0.011
# LARP1B, A0A3B3ISF0 is entered as inactive: -0.089	inactive: -0.09	inactive: 0.051	inactive: 0.054	inactive: -0.026	inactive: -0.054	inactive: 0.013	inactive: -0.02	inactive: 0.012	inactive: -0.006
